Measurements taken from doi:10.1101/2023.02.28.527262.
No constants are given. Whether binding was seen depends on the method and setting. Some binding calls cover weakened binding; strength is not graded here.

By UniProt entry, the sequences of proteins in these tests, tags left out. Where a name states a change or a piece, a line headed by the entry shows the natural chain unless it says otherwise. Chains listed by the source or under a name are the forms on record and can include a tag or linker.
soluble serum stimulated 2 (sST2) (Q01638, form named): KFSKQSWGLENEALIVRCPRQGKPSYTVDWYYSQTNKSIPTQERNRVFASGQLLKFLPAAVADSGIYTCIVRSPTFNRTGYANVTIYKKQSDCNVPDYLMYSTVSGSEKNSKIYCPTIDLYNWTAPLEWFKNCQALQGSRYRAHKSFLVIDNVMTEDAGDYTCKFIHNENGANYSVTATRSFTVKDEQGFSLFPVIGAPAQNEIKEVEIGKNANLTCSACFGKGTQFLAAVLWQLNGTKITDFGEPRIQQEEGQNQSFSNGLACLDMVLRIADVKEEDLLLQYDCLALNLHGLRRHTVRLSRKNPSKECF

Target: soluble serum stimulated 2 (sST2) (UniProt Q01638)
Assay: AlphaScreen or HTRF

B1: reduced interleukin-33 (IL-33^red), residues 112–270 (ligand, UniProt O95760 112-270)
chain: SITGISPITEYLASLSTYNDQSITFALEDESYEIYVEDLKKDEKKDKVLLSYYESQHPSNESGDGVDGKMLMVTLSPTKDFWLHANNKEHSVELHKCEKPLPDQAFFVLHNMHSNCVSFECKTDPGVFIGVKDNHLALIKVDSSENLCTENILFKLSET
binding: binds
